Here are results for two molecules from PMC11377572.

Amino acid sequences for entries named in this document (tags omitted).
UniProt Q6A4J8: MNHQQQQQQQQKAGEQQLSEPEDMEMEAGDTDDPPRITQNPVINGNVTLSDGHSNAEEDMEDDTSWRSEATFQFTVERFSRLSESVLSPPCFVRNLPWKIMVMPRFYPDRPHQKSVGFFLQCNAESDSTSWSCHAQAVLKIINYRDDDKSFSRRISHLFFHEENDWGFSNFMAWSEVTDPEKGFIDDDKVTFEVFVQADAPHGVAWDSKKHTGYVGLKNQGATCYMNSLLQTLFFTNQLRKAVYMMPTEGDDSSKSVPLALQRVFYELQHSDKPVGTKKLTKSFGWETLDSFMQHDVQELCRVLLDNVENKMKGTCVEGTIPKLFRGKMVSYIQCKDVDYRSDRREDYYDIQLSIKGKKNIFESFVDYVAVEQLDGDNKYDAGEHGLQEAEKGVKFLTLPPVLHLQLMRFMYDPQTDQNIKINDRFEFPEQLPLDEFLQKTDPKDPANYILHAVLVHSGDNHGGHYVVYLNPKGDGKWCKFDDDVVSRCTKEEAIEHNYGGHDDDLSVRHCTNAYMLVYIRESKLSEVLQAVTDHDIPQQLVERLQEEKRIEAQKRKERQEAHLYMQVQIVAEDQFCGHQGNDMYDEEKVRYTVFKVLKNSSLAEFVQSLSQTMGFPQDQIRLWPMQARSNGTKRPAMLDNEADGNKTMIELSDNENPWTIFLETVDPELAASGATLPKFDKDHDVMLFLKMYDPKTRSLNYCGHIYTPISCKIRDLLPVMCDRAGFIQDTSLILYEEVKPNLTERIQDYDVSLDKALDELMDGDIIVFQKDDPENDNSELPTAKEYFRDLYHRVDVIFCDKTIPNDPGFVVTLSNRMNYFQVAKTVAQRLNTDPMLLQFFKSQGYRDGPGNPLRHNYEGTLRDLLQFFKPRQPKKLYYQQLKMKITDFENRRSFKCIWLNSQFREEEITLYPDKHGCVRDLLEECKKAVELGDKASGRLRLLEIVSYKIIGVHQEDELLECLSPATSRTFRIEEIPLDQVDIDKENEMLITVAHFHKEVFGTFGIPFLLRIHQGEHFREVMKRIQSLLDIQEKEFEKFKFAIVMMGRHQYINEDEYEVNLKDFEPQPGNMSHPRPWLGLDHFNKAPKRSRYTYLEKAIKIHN
UniProt Q8CFE3: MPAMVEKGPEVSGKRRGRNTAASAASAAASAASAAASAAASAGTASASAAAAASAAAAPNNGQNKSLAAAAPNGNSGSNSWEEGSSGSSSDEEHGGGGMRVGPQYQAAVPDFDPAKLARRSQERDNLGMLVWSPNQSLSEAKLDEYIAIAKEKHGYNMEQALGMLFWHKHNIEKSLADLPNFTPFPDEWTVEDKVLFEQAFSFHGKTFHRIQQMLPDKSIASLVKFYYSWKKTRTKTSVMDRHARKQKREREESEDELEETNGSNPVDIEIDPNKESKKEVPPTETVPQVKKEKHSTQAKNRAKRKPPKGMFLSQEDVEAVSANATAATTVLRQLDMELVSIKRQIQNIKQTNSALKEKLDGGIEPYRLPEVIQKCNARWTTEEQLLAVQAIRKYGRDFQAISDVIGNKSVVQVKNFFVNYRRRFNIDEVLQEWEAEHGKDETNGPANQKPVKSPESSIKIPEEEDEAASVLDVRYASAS
UniProt Q8C796: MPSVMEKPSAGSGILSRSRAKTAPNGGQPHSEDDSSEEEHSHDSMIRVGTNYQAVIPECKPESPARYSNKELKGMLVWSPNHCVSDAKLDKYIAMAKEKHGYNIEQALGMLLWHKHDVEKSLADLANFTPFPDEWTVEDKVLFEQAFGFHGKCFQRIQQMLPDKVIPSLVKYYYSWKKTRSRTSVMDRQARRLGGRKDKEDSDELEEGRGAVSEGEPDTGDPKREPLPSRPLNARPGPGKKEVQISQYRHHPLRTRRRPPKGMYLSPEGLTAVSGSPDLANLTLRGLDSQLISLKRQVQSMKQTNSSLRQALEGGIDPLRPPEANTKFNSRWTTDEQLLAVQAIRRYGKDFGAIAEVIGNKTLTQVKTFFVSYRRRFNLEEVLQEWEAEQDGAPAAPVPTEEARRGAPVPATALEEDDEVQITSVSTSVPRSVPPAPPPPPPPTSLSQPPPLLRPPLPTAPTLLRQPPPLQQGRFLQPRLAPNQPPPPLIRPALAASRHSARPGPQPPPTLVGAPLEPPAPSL

In assay [1] the target is ubiquitin-specific peptidase 7 (USP7), endogenous in mouse ESCs (mouse (endogenous in CCE mouse ESCs)) (UniProt Q6A4J8). The experiment in a line: co-IP; USP7 immunoprecipitation from whole cell extract of Lsd1 KO mouse ESCs (DNMT1 and UHRF1 protein levels are low in these cells), immunoblots.
Assay [2] deals with RCOR1, endogenous in mouse ESCs (mouse (endogenous in CCE mouse ESCs)) (UniProt Q8CFE3). The assay is described as follows: co-IP; immunoprecipitation with RCOR1 (Novus NBP3-16225, 5 ug) or RCOR2 (Proteintech 23969-1-AP, 5 ug) antibodies from mouse ESC extract, immunoblots (Supplementary Fig. 9E, F).
Assay [3] concerns the target RCOR2, endogenous in mouse ESCs (mouse (endogenous in CCE mouse ESCs)) (UniProt Q8C796). Described as above.
Assay [4] has as its target ubiquitin-specific peptidase 7 (USP7), endogenous in mouse ESCs (mouse (endogenous in CCE mouse ESCs)) (UniProt Q6A4J8). The experiment in a line: co-IP; USP7 immunoprecipitation (anti-USP7, Invitrogen PA5-34911, 4 ug; protein A magnetic beads) from whole cell extract of WT, LSD1^WT and LSD1^MUT mouse ESCs, immunoblots; also with DNase or RNase treatment and after TSA or SAHA treatment of the cells. For orientation: A western blot detects proteins with antibodies after separation by electrophoresis.

Assay [5] has as its target HDAC1, endogenous in mouse ESCs (mouse (endogenous in CCE mouse ESCs)), O09106. The assay is described as follows: co-IP; HDAC1 immunoprecipitation (anti-HDAC1, Abcam ab19845, 4 ug) from whole cell extract of WT mouse ESCs, immunoblots of DNMT1, UHRF1 and LSD1. The settings on record: remark: other sources report otherwise.

Results are given in words; binding and its absence hold for the method and conditions named. Binding seen in cells or lysates may run through a third protein. Some results given as binding are weak or reduced against the parent protein; the word gives no strength.

B1: Ubiquitin-like, with PHD and RING finger domains 1 (UHRF1), endogenous in mouse ESCs (protein, UniProt Q8VDF2 1-782)
chain: MWIQVRTMDGKETHTVNSLSRLTKVQELRKKIEEVFHVEPQLQRLFYRGKQMEDGHTLFDYDVRLNDTIQLLVRQSLALPLSTKERDSELSDSDSGYGVGHSESDKSSTHGEGAAEADDKTVWEDTDLGLYKVNEYVDVRDNIFGAWFEAQVVQVQKRALSEDEPCSSSAVKTSEDDIMYHVKYDDYPEHGVDIVKAKNVRARARTVIPWENLEVGQVVMANYNVDYPRKRGFWYDVEICRKRQTRTARELYGNIRLLNDSQLNNCRIMFVDEVLMIELPKERRPLIASPSQPPPALRNTGKSGPSCRFCKDDENKPCRKCACHVCGGREAPEKQLLCDECDMAFHLYCLKPPLTSVPPEPEWYCPSCRTDSSEVVQAGEKLKESKKKAKMASATSSSRRDWGKGMACVGRTTECTIVPANHFGPIPGVPVGTMWRFRVQVSESGVHRPHVAGIHGRSNDGAYSLVLAGGYEDDVDNGNYFTYTGSGGRDLSGNKRTAGQSSDQKLTNNNRALALNCHSPINEKGAEAEDWRQGKPVRVVRNMKGGKHSKYAPAEGNRYDGIYKVVKYWPERGKSGFLVWRYLLRRDDTEPEPWTREGKDRTRQLGLTMQYPEGYLEALANKEKSRKRPAKALEQGPSSSKTGKSKQKSTGPTLSSPRASKKSKLEPYTLSEQQANLIKEDKGNAKLWDDVLTSLQDGPYQIFLSKVKEAFQCICCQELVFRPVTTVCQHNVCKDCLDRSFRAQVFSCPACRFELDHSSPTRVNQPLQTILNQLFPGYGSGR
As to B1, the binding entry in assay [1] is recorded as “binds weakly”; in assay [2] it was “no binding”; in assay [3], “no binding”; in assay [4] it was “binds”.

B2: Ubiquitin-like, with PHD and RING finger domains 1 (UHRF1), endogenous in mouse ESCs, Q8VDF2 1-782 (protein)
chain: B1 chain
On to B2, for which the binding entry in assay [5] is “no binding”.
